These are yes or no findings as the source states them, for the method shown. Binding seen in cells or lysates may run through a third protein. Some results given as binding are weak or reduced against the parent protein; the word gives no strength. For some of these results: Tags and fused reporters may be left off the sequences shown. Values belong to the molecule of their own block, whether it stands above or below them.
Key:
[1] = target: T1, Aldo-keto reductase 1C3 (AKR1C3), overexpressed in OE33 cells (OE33 AKR1C3) (UniProt P42330); assay: co-IP; EAC cell lysates (OE33 VEC/AKR1C3, SKGT-4 shNT/shAKR1C3) incubated with IP antibody (anti-AKR1C3, anti-HSPA5) overnight at 4 °C, protein A/G Dynabeads, three washes with lysis buffer, western blot
T1 sequence: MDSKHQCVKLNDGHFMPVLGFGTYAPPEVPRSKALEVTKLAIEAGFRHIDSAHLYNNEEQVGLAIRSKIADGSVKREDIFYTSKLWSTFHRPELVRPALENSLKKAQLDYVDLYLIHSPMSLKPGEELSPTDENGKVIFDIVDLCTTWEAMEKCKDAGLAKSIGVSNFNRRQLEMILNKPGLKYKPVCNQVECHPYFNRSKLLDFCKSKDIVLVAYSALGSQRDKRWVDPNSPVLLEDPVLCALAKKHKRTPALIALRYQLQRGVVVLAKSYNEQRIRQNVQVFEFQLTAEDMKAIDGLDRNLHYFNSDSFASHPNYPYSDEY

The chains behind the UniProt entries cited, without tags or fusion partners. Where a name states a change or a piece, a line headed by the entry shows the natural chain unless it says otherwise. A line that says so, or that is headed by a name, gives the form on record, which may keep a tag or linker. Residues count along the entry.
UniProt P11021: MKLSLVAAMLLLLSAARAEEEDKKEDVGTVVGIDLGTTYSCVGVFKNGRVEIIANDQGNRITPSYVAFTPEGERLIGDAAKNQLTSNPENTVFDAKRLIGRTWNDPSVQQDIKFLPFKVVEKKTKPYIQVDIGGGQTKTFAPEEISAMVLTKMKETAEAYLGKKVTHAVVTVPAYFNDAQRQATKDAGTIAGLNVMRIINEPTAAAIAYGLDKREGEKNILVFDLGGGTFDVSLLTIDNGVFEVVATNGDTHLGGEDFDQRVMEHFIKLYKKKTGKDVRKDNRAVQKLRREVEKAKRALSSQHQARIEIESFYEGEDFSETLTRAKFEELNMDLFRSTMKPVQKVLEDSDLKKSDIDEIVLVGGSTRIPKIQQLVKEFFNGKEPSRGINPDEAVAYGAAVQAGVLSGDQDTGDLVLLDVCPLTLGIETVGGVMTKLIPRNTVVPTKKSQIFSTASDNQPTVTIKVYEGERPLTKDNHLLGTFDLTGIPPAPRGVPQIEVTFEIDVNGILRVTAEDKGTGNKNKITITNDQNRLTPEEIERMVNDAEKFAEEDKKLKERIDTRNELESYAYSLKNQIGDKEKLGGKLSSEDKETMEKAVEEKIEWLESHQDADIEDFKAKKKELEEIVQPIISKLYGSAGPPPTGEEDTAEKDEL
Heat-shock-protein family A member 5 (HSPA5), endogenous in EAC cells (human (endogenous in OE33 and SKGT-4)): residues 19-654 of P11021
HA-tagged truncated HSPA5, nucleotide-binding domain (125 - 399 aa): residues 125-399 of P11021
UniProt P19474: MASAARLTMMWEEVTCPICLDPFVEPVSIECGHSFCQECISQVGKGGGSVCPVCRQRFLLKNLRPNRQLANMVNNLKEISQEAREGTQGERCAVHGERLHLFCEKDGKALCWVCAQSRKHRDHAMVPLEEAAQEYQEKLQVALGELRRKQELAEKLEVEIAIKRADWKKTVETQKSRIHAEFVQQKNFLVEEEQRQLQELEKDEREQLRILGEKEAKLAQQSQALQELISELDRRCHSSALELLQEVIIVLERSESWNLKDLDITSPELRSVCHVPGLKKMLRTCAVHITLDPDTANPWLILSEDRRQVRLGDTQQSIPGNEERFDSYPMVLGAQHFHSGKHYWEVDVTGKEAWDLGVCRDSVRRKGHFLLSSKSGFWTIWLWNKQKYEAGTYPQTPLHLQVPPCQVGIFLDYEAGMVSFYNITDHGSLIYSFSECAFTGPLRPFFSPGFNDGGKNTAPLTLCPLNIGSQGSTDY

[2] = target: T2, Aldo-keto reductase 1C3 (AKR1C3), endogenous in SKGT-4 cells (human (endogenous in SKGT-4)) (UniProt P42330); assay: as above
T2 sequence: T1 sequence

[3] = target: Heat-shock-protein family A member 5 (HSPA5), endogenous in EAC cells (human (endogenous in OE33 and SKGT-4)) (UniProt P11021); assay: as above
[4] = target: HA-tagged truncated HSPA5, nucleotide-binding domain (125 - 399 aa) (UniProt P11021); assay: co-IP; HA-tagged truncated HSPA5 co-transfected with Flag-tagged AKR1C3 into HEK293T cells; IP with anti-HA antibody, western blot

binding [1]: binds | binding [2]: binds
Molecule: Heat-shock-protein family A member 5 (HSPA5), endogenous in EAC cells (from UniProt P11021 19-654)

binding [3]: binds
Molecule: Tripartite motif-containing protein 21 (TRIM21), endogenous in EAC cells (from UniProt P19474 1-475)

binding [4]: binds
B1: Flag-tagged AKR1C3, full length (protein, UniProt P42330 1-323)
chain: T1 sequence

Source: paper PMC12222831
